The supplement of paper PMC12819154, “High-throughput peptide-centric local stability assay extends protein–ligand identification to membrane proteins, tissues and bacteria” (Nature Structural & Molecular Biology, 2025)
The list shows a part of the results. Most values lie at the level of the controls, where differences are scatter.

Chains of the proteins cited; added tags and fusions are not shown. Lines headed by an entry give the natural chain unless they say otherwise; changes in a name come on top.
UniProt P12980: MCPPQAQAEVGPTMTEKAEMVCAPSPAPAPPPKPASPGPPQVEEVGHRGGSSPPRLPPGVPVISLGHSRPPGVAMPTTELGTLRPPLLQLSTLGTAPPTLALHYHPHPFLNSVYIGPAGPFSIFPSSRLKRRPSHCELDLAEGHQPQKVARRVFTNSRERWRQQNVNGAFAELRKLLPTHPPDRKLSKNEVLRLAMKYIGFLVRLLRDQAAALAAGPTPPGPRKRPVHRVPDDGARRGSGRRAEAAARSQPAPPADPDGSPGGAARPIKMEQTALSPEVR
UniProt P07954: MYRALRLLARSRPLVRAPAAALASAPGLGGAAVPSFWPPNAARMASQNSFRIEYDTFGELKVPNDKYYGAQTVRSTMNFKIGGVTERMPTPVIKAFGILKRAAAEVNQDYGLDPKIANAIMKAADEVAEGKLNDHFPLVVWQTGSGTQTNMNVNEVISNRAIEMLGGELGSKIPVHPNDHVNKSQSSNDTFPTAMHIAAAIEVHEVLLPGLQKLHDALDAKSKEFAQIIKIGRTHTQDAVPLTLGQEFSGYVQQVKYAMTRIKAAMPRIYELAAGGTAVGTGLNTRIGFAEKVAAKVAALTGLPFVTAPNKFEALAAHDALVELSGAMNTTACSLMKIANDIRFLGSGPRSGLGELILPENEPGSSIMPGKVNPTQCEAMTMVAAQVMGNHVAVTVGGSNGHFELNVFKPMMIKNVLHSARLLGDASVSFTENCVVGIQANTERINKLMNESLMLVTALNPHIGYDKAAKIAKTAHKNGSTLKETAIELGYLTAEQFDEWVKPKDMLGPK
UniProt P09132: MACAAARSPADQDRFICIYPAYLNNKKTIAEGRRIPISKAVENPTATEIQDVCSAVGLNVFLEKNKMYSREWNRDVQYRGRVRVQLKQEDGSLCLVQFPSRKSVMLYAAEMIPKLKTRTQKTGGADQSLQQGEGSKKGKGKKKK
UniProt P11177, whole entry: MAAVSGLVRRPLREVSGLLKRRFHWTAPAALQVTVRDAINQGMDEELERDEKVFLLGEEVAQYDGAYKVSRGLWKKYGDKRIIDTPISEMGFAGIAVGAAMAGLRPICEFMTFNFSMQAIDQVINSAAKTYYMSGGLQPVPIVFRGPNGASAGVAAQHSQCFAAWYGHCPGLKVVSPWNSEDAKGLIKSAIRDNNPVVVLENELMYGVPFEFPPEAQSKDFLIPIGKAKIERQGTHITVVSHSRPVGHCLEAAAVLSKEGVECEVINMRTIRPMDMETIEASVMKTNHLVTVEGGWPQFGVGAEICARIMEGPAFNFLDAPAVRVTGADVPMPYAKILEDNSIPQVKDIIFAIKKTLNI
UniProt P0DMM9: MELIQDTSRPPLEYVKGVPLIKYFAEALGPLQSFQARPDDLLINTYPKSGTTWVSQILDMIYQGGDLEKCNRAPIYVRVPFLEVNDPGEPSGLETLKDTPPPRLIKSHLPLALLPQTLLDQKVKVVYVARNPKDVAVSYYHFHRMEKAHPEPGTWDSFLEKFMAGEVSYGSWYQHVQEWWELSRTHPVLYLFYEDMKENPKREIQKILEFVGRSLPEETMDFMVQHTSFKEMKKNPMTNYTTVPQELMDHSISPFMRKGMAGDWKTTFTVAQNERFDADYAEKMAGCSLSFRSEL
UniProt P05412, whole entry: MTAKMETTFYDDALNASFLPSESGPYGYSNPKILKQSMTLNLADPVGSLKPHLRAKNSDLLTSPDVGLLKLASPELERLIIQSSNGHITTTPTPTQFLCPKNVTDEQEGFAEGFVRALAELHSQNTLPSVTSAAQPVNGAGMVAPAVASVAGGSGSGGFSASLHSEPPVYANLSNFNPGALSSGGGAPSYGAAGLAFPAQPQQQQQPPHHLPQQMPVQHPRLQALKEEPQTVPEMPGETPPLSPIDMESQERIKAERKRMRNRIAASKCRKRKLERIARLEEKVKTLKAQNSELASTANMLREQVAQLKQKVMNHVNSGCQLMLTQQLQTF
UniProt P0C7T5: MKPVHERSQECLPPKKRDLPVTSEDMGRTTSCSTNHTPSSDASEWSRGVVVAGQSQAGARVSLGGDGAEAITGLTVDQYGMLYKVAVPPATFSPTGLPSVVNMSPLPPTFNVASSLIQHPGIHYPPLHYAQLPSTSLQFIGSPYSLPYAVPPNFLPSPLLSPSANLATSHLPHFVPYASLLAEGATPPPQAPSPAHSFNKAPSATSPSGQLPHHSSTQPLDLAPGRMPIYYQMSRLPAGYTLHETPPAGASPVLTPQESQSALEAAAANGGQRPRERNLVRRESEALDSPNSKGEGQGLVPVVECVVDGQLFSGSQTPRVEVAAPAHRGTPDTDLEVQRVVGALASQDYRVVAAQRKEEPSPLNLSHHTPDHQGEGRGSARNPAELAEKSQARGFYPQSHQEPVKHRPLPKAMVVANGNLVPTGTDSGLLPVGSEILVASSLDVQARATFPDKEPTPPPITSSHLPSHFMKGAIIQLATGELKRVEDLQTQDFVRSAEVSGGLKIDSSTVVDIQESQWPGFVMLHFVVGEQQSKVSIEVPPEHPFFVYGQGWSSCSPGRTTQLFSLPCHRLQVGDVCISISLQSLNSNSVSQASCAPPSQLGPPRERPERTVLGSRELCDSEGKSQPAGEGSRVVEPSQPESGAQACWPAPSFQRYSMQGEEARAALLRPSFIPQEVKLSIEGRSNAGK
UniProt P08670, whole entry: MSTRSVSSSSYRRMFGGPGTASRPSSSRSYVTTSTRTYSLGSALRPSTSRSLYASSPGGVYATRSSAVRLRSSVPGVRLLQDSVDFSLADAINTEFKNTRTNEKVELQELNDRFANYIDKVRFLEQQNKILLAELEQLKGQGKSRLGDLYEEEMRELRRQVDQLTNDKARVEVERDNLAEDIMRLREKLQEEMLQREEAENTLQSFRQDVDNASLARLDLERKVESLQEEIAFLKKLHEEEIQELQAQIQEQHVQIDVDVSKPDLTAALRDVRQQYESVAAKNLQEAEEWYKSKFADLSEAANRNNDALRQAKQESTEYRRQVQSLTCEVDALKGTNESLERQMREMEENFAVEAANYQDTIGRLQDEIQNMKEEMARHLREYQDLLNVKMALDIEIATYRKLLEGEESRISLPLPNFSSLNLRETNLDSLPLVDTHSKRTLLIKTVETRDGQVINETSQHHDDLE
UniProt P04075: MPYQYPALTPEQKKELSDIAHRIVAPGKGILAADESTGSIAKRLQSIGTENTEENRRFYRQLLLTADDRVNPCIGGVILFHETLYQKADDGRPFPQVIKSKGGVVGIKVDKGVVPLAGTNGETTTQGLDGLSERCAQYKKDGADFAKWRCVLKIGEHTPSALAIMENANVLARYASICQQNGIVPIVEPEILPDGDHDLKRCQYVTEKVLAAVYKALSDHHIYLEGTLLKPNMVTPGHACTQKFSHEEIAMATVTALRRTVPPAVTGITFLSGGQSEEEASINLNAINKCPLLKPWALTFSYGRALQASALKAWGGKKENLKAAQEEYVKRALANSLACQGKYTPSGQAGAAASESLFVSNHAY
UniProt P01127, whole entry: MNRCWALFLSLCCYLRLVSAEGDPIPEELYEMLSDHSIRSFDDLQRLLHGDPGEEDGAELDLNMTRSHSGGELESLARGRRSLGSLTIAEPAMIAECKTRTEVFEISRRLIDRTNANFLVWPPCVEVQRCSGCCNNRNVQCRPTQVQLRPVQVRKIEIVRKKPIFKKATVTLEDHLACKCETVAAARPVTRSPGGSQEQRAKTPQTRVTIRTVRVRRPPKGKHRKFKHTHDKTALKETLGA
UniProt P0DTL6: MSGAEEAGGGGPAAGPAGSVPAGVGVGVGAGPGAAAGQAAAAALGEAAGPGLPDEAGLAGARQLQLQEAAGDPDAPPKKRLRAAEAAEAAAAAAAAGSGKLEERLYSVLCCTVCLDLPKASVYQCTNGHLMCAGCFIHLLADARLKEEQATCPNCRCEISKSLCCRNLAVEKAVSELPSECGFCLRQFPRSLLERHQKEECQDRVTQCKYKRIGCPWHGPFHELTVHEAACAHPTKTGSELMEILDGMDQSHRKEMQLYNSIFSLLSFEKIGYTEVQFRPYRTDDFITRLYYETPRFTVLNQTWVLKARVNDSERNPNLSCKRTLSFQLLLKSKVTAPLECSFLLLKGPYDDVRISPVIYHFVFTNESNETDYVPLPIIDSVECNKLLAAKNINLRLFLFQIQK
UniProt P02774: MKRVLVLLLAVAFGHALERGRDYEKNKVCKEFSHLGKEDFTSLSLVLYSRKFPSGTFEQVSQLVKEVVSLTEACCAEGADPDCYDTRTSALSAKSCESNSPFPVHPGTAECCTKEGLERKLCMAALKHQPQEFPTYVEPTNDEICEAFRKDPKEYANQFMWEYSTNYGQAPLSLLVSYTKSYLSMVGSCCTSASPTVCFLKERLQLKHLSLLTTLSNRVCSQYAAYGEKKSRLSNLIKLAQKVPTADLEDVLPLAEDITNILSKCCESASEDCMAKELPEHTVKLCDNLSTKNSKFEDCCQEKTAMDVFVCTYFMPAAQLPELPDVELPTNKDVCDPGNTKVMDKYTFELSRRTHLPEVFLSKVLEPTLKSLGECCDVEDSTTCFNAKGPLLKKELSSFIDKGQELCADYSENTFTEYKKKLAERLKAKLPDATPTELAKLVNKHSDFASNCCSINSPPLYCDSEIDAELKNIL
UniProt P0C1Z6, whole entry: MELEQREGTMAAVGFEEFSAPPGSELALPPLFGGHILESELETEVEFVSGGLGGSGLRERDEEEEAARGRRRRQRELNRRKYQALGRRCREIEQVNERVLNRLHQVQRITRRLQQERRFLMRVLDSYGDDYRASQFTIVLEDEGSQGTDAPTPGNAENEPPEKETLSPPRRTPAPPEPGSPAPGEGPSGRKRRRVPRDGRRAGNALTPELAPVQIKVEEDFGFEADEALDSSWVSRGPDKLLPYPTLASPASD
UniProt P05423: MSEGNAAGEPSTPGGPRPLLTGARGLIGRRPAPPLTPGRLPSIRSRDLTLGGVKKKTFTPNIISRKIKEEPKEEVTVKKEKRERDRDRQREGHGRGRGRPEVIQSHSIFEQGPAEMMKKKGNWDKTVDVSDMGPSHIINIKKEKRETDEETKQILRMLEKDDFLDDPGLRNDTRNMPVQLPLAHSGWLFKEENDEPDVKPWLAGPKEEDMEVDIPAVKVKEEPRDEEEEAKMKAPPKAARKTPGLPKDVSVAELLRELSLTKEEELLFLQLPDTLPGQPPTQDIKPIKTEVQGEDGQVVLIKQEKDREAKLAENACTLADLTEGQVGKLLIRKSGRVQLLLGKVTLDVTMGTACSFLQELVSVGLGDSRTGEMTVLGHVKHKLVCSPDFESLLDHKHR
UniProt P08575: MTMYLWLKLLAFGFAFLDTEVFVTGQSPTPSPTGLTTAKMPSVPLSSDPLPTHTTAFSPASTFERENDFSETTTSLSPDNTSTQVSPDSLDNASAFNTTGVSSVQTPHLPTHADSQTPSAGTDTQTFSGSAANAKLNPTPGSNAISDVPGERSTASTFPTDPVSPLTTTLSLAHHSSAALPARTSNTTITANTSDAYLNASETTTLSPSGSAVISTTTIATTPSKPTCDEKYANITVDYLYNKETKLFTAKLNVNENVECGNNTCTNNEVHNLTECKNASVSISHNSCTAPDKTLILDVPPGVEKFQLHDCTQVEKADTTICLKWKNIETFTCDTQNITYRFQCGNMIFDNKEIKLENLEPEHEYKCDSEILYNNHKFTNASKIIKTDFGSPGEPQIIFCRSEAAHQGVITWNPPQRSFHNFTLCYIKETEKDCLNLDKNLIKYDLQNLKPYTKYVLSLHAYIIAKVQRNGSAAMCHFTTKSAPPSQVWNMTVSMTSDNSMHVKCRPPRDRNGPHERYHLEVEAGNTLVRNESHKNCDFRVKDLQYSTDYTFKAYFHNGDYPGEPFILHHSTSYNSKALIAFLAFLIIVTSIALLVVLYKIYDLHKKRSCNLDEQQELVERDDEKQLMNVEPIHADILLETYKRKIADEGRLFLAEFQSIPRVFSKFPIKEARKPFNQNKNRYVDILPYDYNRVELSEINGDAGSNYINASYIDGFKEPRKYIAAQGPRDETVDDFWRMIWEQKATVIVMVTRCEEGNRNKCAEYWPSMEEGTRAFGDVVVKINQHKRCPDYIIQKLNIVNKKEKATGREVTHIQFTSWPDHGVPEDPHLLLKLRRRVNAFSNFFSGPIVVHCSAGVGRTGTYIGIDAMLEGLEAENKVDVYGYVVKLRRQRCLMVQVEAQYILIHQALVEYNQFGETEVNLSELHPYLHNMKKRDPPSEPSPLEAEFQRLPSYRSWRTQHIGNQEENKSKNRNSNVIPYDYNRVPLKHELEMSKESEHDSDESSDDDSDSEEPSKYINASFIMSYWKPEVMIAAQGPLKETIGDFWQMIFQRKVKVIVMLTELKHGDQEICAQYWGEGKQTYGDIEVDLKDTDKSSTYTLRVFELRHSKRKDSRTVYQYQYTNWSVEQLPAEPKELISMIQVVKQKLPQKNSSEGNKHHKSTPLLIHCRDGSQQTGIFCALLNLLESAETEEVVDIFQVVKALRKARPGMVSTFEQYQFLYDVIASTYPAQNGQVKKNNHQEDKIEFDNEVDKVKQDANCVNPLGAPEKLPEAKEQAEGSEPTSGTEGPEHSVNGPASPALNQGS

Each target was assayed with Cc1nc(Nc2ncc(C(=O)Nc3c(C)cccc3Cl)s2)cc(N2CCN(CCO)CC2)n1 [dasatinib] (assay: log2 fold change of tryptic peptide abundance, ligand vs vehicle (limited proteolysis) (log2 ratio); higher = more trypsin-susceptible (destabilized)). Settings: ligand concentration: 5 uM; sample: K562 cleared lysate.

Row | Target | log2 fold change
1 | UniProt P13682 (peptide sequence: SHTGEKPYECK, peptide start residue: 216) | 0.169
2 | LYL1 (peptide sequence: RRPSHCELDLAEGHQPQK, peptide start residue: 131) (UniProt P12980) | -0.464
3 | FH (peptide sequence: AADEVAEGK, peptide start residue: 123) (UniProt P07954) | -0.0797
4 | P4HB (peptide sequence: ALAPEYAK, peptide start residue: 58) (UniProt P07237) | 0.094
5 | SRP19 (peptide sequence: QEDGSLCLVQFPSRK, peptide start residue: 88) (UniProt P09132) | 0.218
6 | POLA1 (peptide sequence: KLAVTKPNNIK, peptide start residue: 125) (UniProt P09884) | -0.579
7 | UniProt P09086 (peptide sequence: IKLGFTQGDVGLAMGK, peptide start residue: 300) | 0.294
8 | PDHB (peptide sequence: VTGADVPMPYAK, peptide start residue: 325) (UniProt P11177) | 0.154
9 | UniProt P0DMM9 (peptide sequence: AHPEPGTWDSFLEK, peptide start residue: 148) | 0.12
10 | JUN (peptide sequence: QSMTLNLADPVGSLKPHLR, peptide start residue: 36) (UniProt P05412) | -0.0345
11 | NR2C1 (peptide sequence: QFILTNHDGSTPSK, peptide start residue: 43) (UniProt P13056) | -0.127
12 | ATXN1L (peptide sequence: MKPVHER, peptide start residue: 1) (UniProt P0C7T5) | -0.278
13 | VIM (peptide sequence: MFGGPGTASRPSSSR, peptide start residue: 14) (UniProt P08670) | 0.124
14 | APOE (peptide sequence: LKSWFEPLVEDMQR, peptide start residue: 279) (UniProt P02649) | 0.431
15 | ALDOA (peptide sequence: AAQEEYVK, peptide start residue: 323) (UniProt P04075) | 0.0728
16 | HNRNPA1 (peptide sequence: SESPKEPEQLR, peptide start residue: 4) (UniProt P09651) | 0.131
17 | HSPD1 (peptide sequence: VGGTSDVEVNEKK, peptide start residue: 406) (UniProt P10809) | -0.0849
18 | UniProt P01127 (peptide sequence: KFKHTHDK, peptide start residue: 225) | 0.0862
19 | TIMP1 (peptide sequence: GFQALGDAADIR, peptide start residue: 71) (UniProt P01033) | -0.0892

Row | Target | log2 fold change
20 | E9PJD7 (peptide sequence: HQKEECQDR, peptide start residue: 196) (UniProt P0DTL6) | -0.753
21 | UniProt P10827 (peptide sequence: SQEAYLLAFEHYVNHR, peptide start residue: 341) | 0.213
22 | COX5B (peptide sequence: KGLDPYNVLAPK, peptide start residue: 57) (UniProt P10606) | 0.227
23 | UROS (peptide sequence: DAKEDDCGQDPYIR, peptide start residue: 8) (UniProt P10746) | -0.549
24 | UniProt P06493 (peptide sequence: VYTHEVVTLWYR, peptide start residue: 159) | 0.119
25 | CTSH (peptide sequence: TGIYSSTSCHK, peptide start residue: 264) (UniProt P09668) | -0.839
26 | OAT (peptide sequence: SQVDKLTLTSR, peptide start residue: 103) (UniProt P04181) | 0.625
27 | GC (peptide sequence: RTHLPEVFLSK, peptide start residue: 353) (UniProt P02774) | 0.045
28 | UniProt P0C860 (peptide sequence: LFLHLEK, peptide start residue: 384) | 0.0143
29 | ENO1 (peptide sequence: TIAPALVSK, peptide start residue: 72) (UniProt P06733) | 0.0836
30 | DMD (peptide sequence: EGPYTVDAIQK, peptide start residue: 2608) (UniProt P11532) | 0.564
31 | CAT (peptide sequence: LGPNYLHIPVNCPYR, peptide start residue: 366) (UniProt P04040) | 0.155
32 | TFPT (peptide sequence: RTPAPPEPGSPAPGEGPSGR, peptide start residue: 171) (UniProt P0C1Z6) | -0.228
33 | POLR3D (peptide sequence: DDFLDDPGLR, peptide start residue: 161) (UniProt P05423) | 0.865
34 | POLB (peptide sequence: AASVIAK, peptide start residue: 42) (UniProt P06746) | -0.462
35 | PTPRC (peptide sequence: NNHQEDKIEFDNEVDKVK, peptide start residue: 1239) (UniProt P08575) | -0.407
36 | SLC3A2 (peptide sequence: IGDLQAFQGHGAGNLAGLK, peptide start residue: 227) (UniProt P08195) | -0.35
37 | TFRC (peptide sequence: YNSQLLSFVR, peptide start residue: 614) (UniProt P02786) | -0.498

Part of the list above in another layout.
Row	Target	log2 fold change
23	UROS (peptide sequence: DAKEDDCGQDPYIR, peptide start residue: 8) (UniProt P10746)	-0.549
29	ENO1 (peptide sequence: TIAPALVSK, peptide start residue: 72) (UniProt P06733)	0.0836
